In patent US8378117B2 (priority 2005, dated 2013):
At least one compound was matched to its structure with a doubt left.

What was measured:
Male CD-1 mice [1] = experiment: Postoperative inflammatory ileus, microscopic myeloperoxidase histological examination; format: in vivo; conditions: 24 hr post-laparotomy
Procedure: (§1) Male CD-1 mice were anesthetized by inhaled isoflurane and prepared for surgery. The abdomen was shaved of hair and treated with antiseptic solution. The animal was then covered with a surgical drape, leaving the abdomen exposed. A mid-line laparotomy was performed, and the entire small intestine was exteriorized onto the sterile drape. Using two moistened, sterile, cotton-tipped applicators, the small intestine was then gently compressed along its length from the ligament of Treitz to the ileo-cecal junction. The small intestine was then returned to the abdominal cavity and the incision closed by two layers of sutures.
(§2) Age-matched mice were randomly assigned to groups (6 animals per group) and injected intraperitoneally (i.p.) with “vehicle” (a mixture of 5% ethanol/5% Tween80/90% of 5% dextran in water w/v) containing various doses of a test compound 1 hr prior to laparotomy. The second group was injected intraperitoneally with vehicle. The third group was administered intragastrically (1 mg/kg) a mixture (1 mg/mL) of dexamethasone in 20% hydroxypropyl methyl dextran in water, once per day for two days prior to surgery and 5 hrs post-laparotomy. […]
Microscopic histological examination was performed on harvested tissues 24 hr post-laparotomy. […] Myeloperoxidase containing leukocytes were counted in 6 to 8 adjacent 200× optical fields, and the mean cell counts were calculated and recorded. […]

Male CD-1 mice [2] = experiment: Postoperative inflammatory ileus, upper gastrointestinal transit (FITC-dextran, Geometric Center); format: in vivo; conditions: 24 hr post-laparotomy, 45 min test period
Procedure: as §1, §2
Upper gastrointestinal transit was measured 24 hr post-laparotomy. […] Aliquots of the cleared supernatant were read in duplicate on a 96-well fluorescence plate reader to quantify the magnitude of the fluorescent signal in each segment of bowel. […]

C[C@@H]1C[C@H]2[C@@H]3CCC4=CC(=O)C=C[C@]4(C)[C@@]3(F)[C@@H](O)C[C@]2(C)[C@@]1(O)C(=O)CO [dexamethasone, reference compound]
magnitude of infiltrate of myeloperoxidase (MPO) positive leukocytes in the intestinal muscularis (Male CD-1 mice [1]): significantly reduced
gastrointestinal transit (Geometric Center) (Male CD-1 mice [2]): partial recovery
